Laboratory results as given in PMC5756042, “Molecular Defects of the Disease-Causing Human Arrestin-1 C147F Mutant” (Investigative Ophthalmology & Visual Science, 2018).
Results are given in words; binding and its absence hold for the method and conditions named. Some results given as binding are weak or reduced against the parent protein; the word gives no strength.

By UniProt entry, the sequences of proteins in these tests, tags left out.
UniProt P02699: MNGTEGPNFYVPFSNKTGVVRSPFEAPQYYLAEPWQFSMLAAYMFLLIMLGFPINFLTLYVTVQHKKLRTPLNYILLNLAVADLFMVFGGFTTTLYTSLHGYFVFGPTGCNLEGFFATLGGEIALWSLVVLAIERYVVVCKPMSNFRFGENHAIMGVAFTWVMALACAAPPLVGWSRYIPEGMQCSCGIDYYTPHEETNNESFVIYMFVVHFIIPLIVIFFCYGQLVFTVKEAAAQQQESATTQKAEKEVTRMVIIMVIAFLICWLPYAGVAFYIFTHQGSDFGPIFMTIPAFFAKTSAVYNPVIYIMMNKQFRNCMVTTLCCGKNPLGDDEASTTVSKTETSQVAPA
UniProt P10523: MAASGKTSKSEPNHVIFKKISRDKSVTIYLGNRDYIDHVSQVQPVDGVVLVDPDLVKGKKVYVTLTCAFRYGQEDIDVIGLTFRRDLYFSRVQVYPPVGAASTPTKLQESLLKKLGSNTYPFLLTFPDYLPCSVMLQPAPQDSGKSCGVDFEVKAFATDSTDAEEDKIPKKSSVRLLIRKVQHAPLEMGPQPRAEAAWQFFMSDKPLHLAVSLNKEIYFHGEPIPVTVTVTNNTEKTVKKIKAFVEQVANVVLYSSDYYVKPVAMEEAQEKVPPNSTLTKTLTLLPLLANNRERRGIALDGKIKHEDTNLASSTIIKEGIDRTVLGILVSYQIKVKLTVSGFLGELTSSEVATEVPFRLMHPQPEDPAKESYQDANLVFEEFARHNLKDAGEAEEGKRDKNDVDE

Key:
[1] = target: light-activated phosphorylated rhodopsin (bovine) (UniProt P02699); experiment: radioligand binding; direct binding assay to P-Rh* after incubation of the arrestin-1 at 37°C for 24 hours; 1 nM arrestin-1; only the target purified
[2] = target: light-activated phosphorylated rhodopsin (bovine) (UniProt P02699); experiment: radioligand binding; direct binding assay to P-Rh* after incubation of the arrestin-1 at 37°C for times up to 8 hours; 1 nM arrestin-1; only the target purified
[3] = target: light-activated phosphorylated rhodopsin (bovine) (UniProt P02699); experiment: radioligand binding; direct binding assay to P-Rh* (5 minutes at 37°C) after 30 minutes of incubation of the arrestin-1 at temperatures from 0°C up to 42°C; only the target purified
[4] = target: light-activated phosphorylated rhodopsin (bovine) (UniProt P02699); experiment: radioligand binding; direct binding assay to P-Rh* after incubation of the translated arrestin-1 for 1 or 2 hours at 42°C (control kept on ice); 1 nM arrestin-1; only the target purified
[5] = target: light-activated phosphorylated rhodopsin (bovine) (UniProt P02699); experiment: radioligand binding; direct binding assay: 1 nM radiolabelled arrestin-1 (50 fmol) with 0.3 μg P-Rh* or Rh* (0.22 μM) in 50 μL of 50 mM Tris-HCl pH 7.4, 100 mM potassium acetate, 1 mM EDTA, 1 mM dithiothreitol, 5 minutes at 37°C under room light; bound and free separated at 4°C on Sepharose 2B-CL; scintillation counting; nonspecific binding subtracted; only the target purified

Measured: binding

wild-type human arrestin-1 (from UniProt P10523 1-405)
binds: all assays above
